From the supplement of paper PMC12067093, “Discovery and optimisation of a covalent ligand for TRIM25 and its application to targeted protein ubiquitination” (Chemical Science, 2025)
The list shows a part of the results.

Compound: CC1Cc2ccccc2N1C(=O)C1CCCN(C1)C(=O)CCl (mixture of isomers) [TRIM25 ligand 11 (diastereomer mixture)]
Assay: probe-labelled cysteine peptide fold change vs DMSO (competition) (log2 fold change); higher = less target engagement (more negative = stronger competition)
Settings: THP-1, incubation time: 4 h
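Also: competitive chemoproteomic profiling in live THP-1 cells with an iodoacetamide desthiobiotin (IA-DTB) probe, comparing probe-labelled peptide intensities in compound-treated cells against DMSO-treated controls.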

Row | Target | probe-labelled cysteine peptide fold change (10 µM) | probe-labelled cysteine peptide fold change (50 µM)
1 | CNOT2_Q9NZN8_408_FASPWASSPCRPQDIDFHVPSEYLTNIHIR (UniProt Q9NZN8) | -0.0206 | 0.184
2 | COPB2_P35606_56_TFEVCDLPVR (UniProt P35606) | 0.048 | 0.162
3 | CNPY2_Q9Y2B0_171_TDLCDHALHISHDEL (UniProt Q9Y2B0) | -0.1 | -0.0705
4 | CNDP2_Q96KP4_161_FCLEGMEESGSEGLDELIFAR (UniProt Q96KP4) | -0.00564 | -0.0637
5 | CMSS1_Q9BQ75_55_ECFLIQPK (UniProt Q9BQ75) | 0.12 | 0.0916
6 | CNTRL_Q7Z7A1_1535_DSDFQCLSK (UniProt Q7Z7A1) | -0.0717 | -0.0901
7 | CNOT1_A5YKK6_420_HAEGQLSFIQHSLINPEIFCFADYPCHTVATDILK (UniProt A5YKK6) | 0.0297 | -0.0708
8 | CMAS_Q8NFW8_422_EFAEHICLLMEK (UniProt Q8NFW8) | -0.112 | -0.13
9 | COPS6_Q7L5N1_283_TDFYDQCNDVGLMAYLGTITK (UniProt Q7L5N1) | 0.0632 | -0.0731
10 | COMTD1_Q86VU5_191_ENCSAYYER (UniProt Q86VU5) | 0.0457 | 0.283
11 | COQ8A_Q8NI60_406_RELALECDYQR (UniProt Q8NI60) | 0.197 | -0.0307
12 | COPG1_Q9Y678_516_CVMDDDNEVR (UniProt Q9Y678) | 0.0615 | 0.0379
13 | CNOT1_A5YKK6_1457_NLTAGMAMITCR (UniProt A5YKK6) | 0.02 | 0.106
14 | COG2_Q14746_579_IIQDLSDSCFGFLK (UniProt Q14746) | -0.00864 | -0.00224
15 | CNOT1_A5YKK6_1706_AYGSPWCNK (UniProt A5YKK6) | 0.0689 | 0.0924
16 | COLGALT1_Q8NBJ5_203_AAYSNFWCGMTSQGYYK (UniProt Q8NBJ5) | -0.0487 | -0.107
17 | COG2_Q14746_36_EDFDVDHFVSDCR (UniProt Q14746) | 0.104 | 0.196
18 | CNOT1_A5YKK6_50_CLFSHVDFSGDGK (UniProt A5YKK6) | 0.00225 | 0.134
19 | CNBP_P62633_101_EQCCYNCGKPGHLAR (UniProt P62633) | -0.257 | -0.15
20 | CNP_P09543_49_DKPELQFPFLQDEDTVATLLECK (UniProt P09543) | -0.121 | -0.0575
21 | CMSS1_Q9BQ75_121_LVIELEELNLPDSCFLK (UniProt Q9BQ75) | -0.0138 | -0.108
22 | COL4A3BP_Q9Y5P4_65_SEDETEYGCR (UniProt Q9Y5P4) | -0.0512 | 0.00106

Complete entries, quoted from the list:
CNOT2_Q9NZN8_408_FASPWASSPCRPQDIDFHVPSEYLTNIHIR (UniProt Q9NZN8) is entered as probe-labelled cysteine peptide fold change (10 µM): -0.0206; probe-labelled cysteine peptide fold change (50 µM): 0.184
COL4A3BP_Q9Y5P4_65_SEDETEYGCR (UniProt Q9Y5P4) is entered as probe-labelled cysteine peptide fold change (10 µM): -0.0512; probe-labelled cysteine peptide fold change (50 µM): 0.00106
CNOT1_A5YKK6_50_CLFSHVDFSGDGK (UniProt A5YKK6) is entered as probe-labelled cysteine peptide fold change (10 µM): 0.00225; probe-labelled cysteine peptide fold change (50 µM): 0.134

(listing goes on)

Row | Target | probe-labelled cysteine peptide fold change (10 µM) | probe-labelled cysteine peptide fold change (50 µM)
23 | COLGALT1_Q8NBJ5_228_GCFAVPMVHSTFLIDLR (UniProt Q8NBJ5) | 0.194 | -0.244
24 | COPG1_Q9Y678_129_ALCQITDSTMLQAIER (UniProt Q9Y678) | -0.0691 | -0.0858
25 | COPB1_P53618_684_NEMNCK (UniProt P53618) | -0.113 | -0.242
26 | COPG1_Q9Y678_446_ETGLSHLCEFIEDCEFTVLATR (UniProt Q9Y678) | -0.0941 | -0.12
27 | COA7_Q96BR5_62_FNCEENQHSDSCYK (UniProt Q96BR5) | -0.046 | -0.0432
28 | CNOT8_Q9UFF9_148_HEEEGIDTLHFAELLMTSGVVLCDNVK (UniProt Q9UFF9) | 0.648 | 0.338
29 | CNTRL_Q7Z7A1_1451_EADRLLAEAESELSCTK (UniProt Q7Z7A1) | -0.0109 | -0.00146
30 | COPG1_Q9Y678_440+446_ETGLSHLCEFIEDCEFTVLATR (UniProt Q9Y678) | 0.0958 | 0.133
31 | COMMD9_Q9P000_160_IQEDPSLCGDK (UniProt Q9P000) | -0.179 | 0.17
32 | CNBP_P62633_97+98+101_EQCCYNCGKPGHLAR (UniProt P62633) | -0.122 | -0.267
33 | CMAS_Q8NFW8_405_AVGYICK (UniProt Q8NFW8) | 0.0445 | 0.0947
34 | COPB2_P35606_104_CIAVHPTQPFILTSSDDMLIK (UniProt P35606) | 0.349 | 0.0492
35 | CNBP_P62633_161_CGESGHLAR (UniProt P62633) | 0.218 | 0.0528
36 | CNOT1_A5YKK6_426_HAEGQLSFIQHSLINPEIFCFADYPCHTVATDILK (UniProt A5YKK6) | 0.117 | 0.0307
37 | CMC1_Q7Z7K0_31_CSEQVQDFTK (UniProt Q7Z7K0) | -0.0323 | -0.32
38 | COG4_Q9H9E3_554_MSFLVTLNNVEVCSENISTLK (UniProt Q9H9E3) | 0.146 | -0.0856
39 | CNBP_P62633_57_CGESGHLAK (UniProt P62633) | 0.0116 | 0.0248
40 | COPA_P53621_41_MCTLIDK (UniProt P53621) | 0.285 | 0.306
41 | COPB1_P53618_8_TAAENVCYTLINVPMDSEPPSEISLK (UniProt P53618) | 0.0848 | -0.372
42 | COPE_O14579_225_CSPTLLLLNGQAACHMAQGR (UniProt O14579) | 0.133 | 0.171
43 | COG2_Q14746_287_LLEFVPHHCR (UniProt Q14746) | -0.0363 | 0.0127
44 | COA7_Q96BR5_24_SFLENMEVECNYHCYHEK (UniProt Q96BR5) | -0.12 | -0.238

Row | Target | probe-labelled cysteine peptide fold change (10 µM) | probe-labelled cysteine peptide fold change (50 µM)
45 | COPB1_P53618_102_LLHEMILVCDAYR (UniProt P53618) | -0.0079 | 0.0486
46 | COLEC10_Q9Y6Z7_121_AGTVCDCGR (UniProt Q9Y6Z7) | 0.453 | 0.313
47 | COLGALT1_Q8NBJ5_369_ALQAQEIECR (UniProt Q8NBJ5) | 0.0982 | 0.267
48 | COPA_P53621_380_FPVFNMSYNPAENAVLLCTR (UniProt P53621) | -0.0969 | 0.0467
49 | COMTD1_Q86VU5_133_VVTCEVDAQPPELGR (UniProt Q86VU5) | -0.00545 | 0.0869
50 | CMPK2_Q5EBM0_226_AVLEECTSFIPEAR (UniProt Q5EBM0) | -0.0816 | -0.12
51 | COG2_Q14746_358_QCGSQASVK (UniProt Q14746) | -0.0174 | 0.0387
52 | CNTRL_Q7Z7A1_1375_SLECEVEELHR (UniProt Q7Z7A1) | -0.115 | -0.146
53 | COL15A1_P39059_965_GAIFPIPVRPHCK (UniProt P39059) | 0.017 | 0.0574
54 | COG1_Q8WTW3_318_LCSWFK (UniProt Q8WTW3) | -0.0568 | -0.191
55 | COPG1_Q9Y678_516_RCVMDDDNEVR (UniProt Q9Y678) | 0.169 | 0.116
56 | COPA_P53621_380_SGSKFPVFNMSYNPAENAVLLCTR (UniProt P53621) | -0.452 | -0.219
57 | COMMD9_Q9P000_47_LLDVTCSSLSVTQEEAEELLQALHR (UniProt Q9P000) | 0.253 | 0.258
58 | CNP_P09543_111_LDEDLAAYCR (UniProt P09543) | 0.204 | 0.202
59 | CNBP_P62633_77_DCDLQEDACYNCGR (UniProt P62633) | -0.0579 | 0.0558
60 | COPG1_Q9Y678_516_CVMDDDNEVRDR (UniProt Q9Y678) | 0.0281 | 0.0553
61 | CNBP_P62633_119_CYSCGEFGHIQK (UniProt P62633) | -0.0297 | -0.0532
62 | COPB1_P53618_284_AAAQCYIDLIIK (UniProt P53618) | 0.0398 | 0.0921
63 | COMT_P21964_238_GSSCFECTHYQSFLEYR (UniProt P21964) | 0.0434 | 0.014
64 | COPA_P53621_453_KVQVPNCDEIFYAGTGNLLLR (UniProt P53621) | -0.0464 | 0.105
65 | COPA_P53621_585_GNNVYCLDRECRPR (UniProt P53621) | -0.183 | -0.0663
66 | COMT_P21964_207_YLPDTLLLEECGLLR (UniProt P21964) | -0.0193 | 0.143

Row | Target | probe-labelled cysteine peptide fold change (10 µM) | probe-labelled cysteine peptide fold change (50 µM)
67 | CMTR1_Q8N1G2_794_DSTFDLPADSIAPFHICYYGR (UniProt Q8N1G2) | 0.0684 | 0.14
68 | COL4A3BP_Q9Y5P4_84_AVITPHDFDECRFDISVNDSVWYLR (UniProt Q9Y5P4) | -0.17 | -0.155
69 | CNTLN_Q9NXG0_228_ECVQNK (UniProt Q9NXG0) | -0.023 | -0.0167
70 | COPS4_Q9BT78_255_CQQLAAYGILEK (UniProt Q9BT78) | -0.00136 | -0.0283
71 | CNBP_P62633_111_DCDHADEQK (UniProt P62633) | 0.146 | 0.121
72 | COL18A1_P39060_1604_GADFQCFQQAR (UniProt P39060) | 0.115 | 0.0994
73 | COPA_P53621_1169_NPTDAYQLNYDMHNPFDICAASYR (UniProt P53621) | -0.114 | 0.101
74 | CNN2_Q99439_175_CASQSGMTAYGTR (UniProt Q99439) | -0.144 | -0.0189
75 | CMC1_Q7Z7K0_77_ECLTAYYNDPAFYEECK (UniProt Q7Z7K0) | -0.176 | -0.045
76 | CNOT4_O95628_56_TDENGLCPACR (UniProt O95628) | -0.172 | 0.102
77 | COMT_P21964_238+241_GSSCFECTHYQSFLEYR (UniProt P21964) | -0.0151 | -0.264
78 | CNOT9_Q92600_99_VCNALALLQCVASHPETR (UniProt Q92600) | -0.241 | -0.145
79 | CNTRL_Q7Z7A1_639_GQATQAQNECR (UniProt Q7Z7A1) | -0.0299 | 0.264
80 | CNNM4_Q6P4Q7_383_TVEDIMTQLQDCFMIR (UniProt Q6P4Q7) | -0.0845 | 0.0951
81 | CMTR1_Q8N1G2_504_SNESHCSLQIK (UniProt Q8N1G2) | 0.12 | -0.202
82 | COG6_Q9Y2V7_354_HVTTQGVEENIQEVVGHITEGVCRPLK (UniProt Q9Y2V7) | 0.137 | -0.0512
83 | COPG1_Q9Y678_722+726_EDPTAVACTFSCMMK (UniProt Q9Y678) | -0.0378 | 0.142
84 | COIL_P38432_126_AFQLEEGEETEPDCK (UniProt P38432) | -0.01 | 0.0566
85 | CNOT1_A5YKK6_1687_YRECHLLVLK (UniProt A5YKK6) | 0.0353 | 0.129
